Experimental data: publication PMC9750864
Results are given in words; binding and its absence hold for the method and conditions named. Binding seen in cells or lysates may run through a third protein. Some entries that bind do so weakly or less than the wild type.

Sequences of proteins named here, by UniProt entry; tags and fusion partners are left off.
UniProt Q13283: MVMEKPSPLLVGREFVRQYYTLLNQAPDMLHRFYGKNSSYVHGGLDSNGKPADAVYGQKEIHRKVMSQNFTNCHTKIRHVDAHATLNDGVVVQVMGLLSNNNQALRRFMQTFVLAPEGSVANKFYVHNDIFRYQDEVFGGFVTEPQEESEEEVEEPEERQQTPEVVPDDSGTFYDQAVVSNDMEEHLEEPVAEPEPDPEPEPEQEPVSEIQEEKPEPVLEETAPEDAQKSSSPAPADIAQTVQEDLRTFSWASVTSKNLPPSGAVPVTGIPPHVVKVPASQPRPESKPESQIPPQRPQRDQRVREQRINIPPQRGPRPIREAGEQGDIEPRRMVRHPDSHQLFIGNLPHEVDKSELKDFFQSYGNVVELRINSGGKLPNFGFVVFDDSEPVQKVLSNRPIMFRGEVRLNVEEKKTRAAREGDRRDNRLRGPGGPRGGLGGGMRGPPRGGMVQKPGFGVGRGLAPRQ
UniProt Q14974: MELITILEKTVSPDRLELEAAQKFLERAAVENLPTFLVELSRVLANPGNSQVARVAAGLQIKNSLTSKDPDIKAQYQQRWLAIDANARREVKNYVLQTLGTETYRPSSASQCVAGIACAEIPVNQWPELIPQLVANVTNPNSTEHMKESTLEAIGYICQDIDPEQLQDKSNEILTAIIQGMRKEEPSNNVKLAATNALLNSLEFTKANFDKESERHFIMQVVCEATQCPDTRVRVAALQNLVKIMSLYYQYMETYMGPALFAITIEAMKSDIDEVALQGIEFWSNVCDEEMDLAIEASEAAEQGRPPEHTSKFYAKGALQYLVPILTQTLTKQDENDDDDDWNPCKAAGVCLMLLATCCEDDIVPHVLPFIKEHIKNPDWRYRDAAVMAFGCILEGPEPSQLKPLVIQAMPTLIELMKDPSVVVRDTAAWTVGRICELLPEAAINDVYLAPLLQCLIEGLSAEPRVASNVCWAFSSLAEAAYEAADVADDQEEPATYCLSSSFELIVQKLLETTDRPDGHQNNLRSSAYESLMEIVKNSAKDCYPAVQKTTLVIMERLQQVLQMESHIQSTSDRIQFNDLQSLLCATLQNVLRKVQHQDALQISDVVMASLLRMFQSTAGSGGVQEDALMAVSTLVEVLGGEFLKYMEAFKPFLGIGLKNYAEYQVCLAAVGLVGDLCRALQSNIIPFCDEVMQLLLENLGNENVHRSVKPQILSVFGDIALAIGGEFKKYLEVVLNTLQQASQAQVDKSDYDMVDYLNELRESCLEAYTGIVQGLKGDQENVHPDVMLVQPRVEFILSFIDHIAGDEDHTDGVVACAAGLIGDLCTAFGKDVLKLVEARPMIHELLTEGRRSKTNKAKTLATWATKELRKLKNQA

Target: Ras-GTPase-activating protein SH3 domain-binding protein 1 (G3BP1) (human (endogenous in human melanoma cell lines)) (UniProt Q13283)
Assay: co-IP; lysate of melanoma cells (Western and IP Lysis Solution); IP antibody (1 μg) or paired mouse/rabbit IgG at 4 °C overnight; protein A agarose beads; washed with PBS; western blot

- binding: binds
Substance: karyopherin β1 (KPNB1) (from UniProt Q14974 1-876)
